Laboratory results as given in patent US20190365891A1.
Substitutions are numbered along the chain they refer to. These are yes or no findings as the source states them, for the method shown. Some binding calls cover weakened binding; strength is not graded here.

Amino acid sequences for entries named in this document (tags omitted). Residues count along the entry.
UniProt O14793, residues 24-375: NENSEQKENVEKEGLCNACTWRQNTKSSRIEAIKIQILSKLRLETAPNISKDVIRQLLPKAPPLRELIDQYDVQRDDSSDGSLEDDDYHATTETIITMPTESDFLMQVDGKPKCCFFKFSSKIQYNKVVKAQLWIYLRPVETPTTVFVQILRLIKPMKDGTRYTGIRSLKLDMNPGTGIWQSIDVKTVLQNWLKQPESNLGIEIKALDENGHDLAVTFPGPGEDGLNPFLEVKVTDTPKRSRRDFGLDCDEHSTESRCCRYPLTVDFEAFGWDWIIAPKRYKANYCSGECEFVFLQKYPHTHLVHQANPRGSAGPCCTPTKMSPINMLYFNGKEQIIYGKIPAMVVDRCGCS

B1: Ab3, affinity optimized variant of Ab1 (antibody, IgG4, V domains shown)
VH: QIQLVQSGGGVVQPGRSLRLSCAASGFAFSSYGMHWVRQAPGKGLEWVAVISYDGSIKYYADSVKGRFTISRDNSKNTLYLQMNSLRAEDTAVYYCARDLLVRFLEWSHKYGMDVWGQGTTVTVSS
VL: QPVLTQPPSASGTPGQRVTISCSGSTSNIGSNTVHWYQQLPGTAPKLLIYSDDQRPSGVPDRFSGSKSGTSASLVISGLQSDDEADYYCAAWDESLNGVFGGGTKLTVLG
B2: Ab5, affinity optimized variant of Ab1 (antibody, IgG4, V domains shown)
VH: B1 VH with S56N, I57N
VL: B1 VL with T26S, S31G

Molecular target: proMyostatin (proGDF8), species not stated for the assay (UniProt O14793)
Assay: ForteBio Octet BLI, compared with parental Ab1

Binder	binding
B1	binds
B2	binds
